PubChem BioAssay AID1259308 – NCATS, 2017
The deposit covers about 59,000 reagents; this is a part drawn at random. About 1,510 of all reagents (2.6%) were called active. 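Calls use total luciferase alone and ignore viability, so some active siRNAs may act by altering cell number.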 The numbers tell different reagents against one gene apart.

Aim: 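Candidate targets for better recombinant protein yield in mammalian cells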 (primary screen)
System: human HEK293 embryonic kidney cells stably expressing firefly luciferase (HEK-CMV-Luc2-Hygro)
Reagent: single siRNA against human genes, 0.8 pmol siRNA per well
Timing: 72 h
Measurement: 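Reporter luminescence and viable-cell signal on separate replicate plates, given as percent of non-targeting control and median/MAD z-scores, plus per-cell luciferase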
Reading the numbers: total luciferase, z-score and total luciferase, % of control: higher = more reporter protein produced; luciferase per cell, z-score: higher = more reporter output per viable cell; viable cells, % of control: higher = more viable cells
Rule for the call: 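An siRNA counts as active if its total luciferase robust z-score exceeds 3; genes with two or more such siRNAs out of three were retested with fresh siRNAs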
Calls: active = raised luciferase; inactive = no rise

The first 6 records as a preview:
| gene | siRNA no. | total luciferase, z-score | total luciferase, % of control | luciferase per cell, z-score | viable cells, % of control | Outcome |
| --- | --- | --- | --- | --- | --- | --- |
| DIRAS2 (DIRAS family GTPase 2) | 1 | 0.458 | 91 | 1.16 | 74.9 | inactive |
| DIRAS2 (DIRAS family GTPase 2) | 2 | 0.473 | 91.3 | 0.324 | 93.7 | inactive |
| DIRAS2 (DIRAS family GTPase 2) | 3 | -2.19 | 38.3 | -2.49 | 82.5 | inactive |
| CDH26 (cadherin 26) | 1 | 0.253 | 86.9 | 0.172 | 92.8 | inactive |
| CDH26 (cadherin 26) | 2 | -0.209 | 77.7 | 0.425 | 77.7 | inactive |
| CDH26 (cadherin 26) | 3 | -0.692 | 68.1 | -0.553 | 88.1 | inactive |

Main list, from the start:
| gene | siRNA no. | total luciferase, z-score | total luciferase, % of control | luciferase per cell, z-score | viable cells, % of control | Outcome |
| --- | --- | --- | --- | --- | --- | --- |
| DIRAS2 (DIRAS family GTPase 2) | 1 | 0.458 | 91 | 1.16 | 74.9 | inactive |
| DIRAS2 (DIRAS family GTPase 2) | 2 | 0.473 | 91.3 | 0.324 | 93.7 | inactive |
| DIRAS2 (DIRAS family GTPase 2) | 3 | -2.19 | 38.3 | -2.49 | 82.5 | inactive |
| CDH26 (cadherin 26) | 1 | 0.253 | 86.9 | 0.172 | 92.8 | inactive |
| CDH26 (cadherin 26) | 2 | -0.209 | 77.7 | 0.425 | 77.7 | inactive |
| CDH26 (cadherin 26) | 3 | -0.692 | 68.1 | -0.553 | 88.1 | inactive |
| H2AC20 (H2A clustered histone 20) | 1 | 0.708 | 96 | 0.204 | 102 | inactive |
| H2AC20 (H2A clustered histone 20) | 2 | -1.14 | 59.3 | -0.778 | 81.3 | inactive |
| H2AC20 (H2A clustered histone 20) | 3 | 1.49 | 111 | 0.229 | 117 | inactive |
| KIAA0586 | 1 | -0.622 | 69.5 | -0.284 | 83.7 | inactive |
| KIAA0586 | 2 | 2.22 | 126 | 1.58 | 92.8 | inactive |
| KIAA0586 | 3 | 4.78 | 177 | 2.69 | 97.5 | active |
| P2RY14 (purinergic receptor P2Y14) | 1 | 0.487 | 91.6 | 0.583 | 87.8 | inactive |
| P2RY14 (purinergic receptor P2Y14) | 2 | 0.0383 | 82.6 | -0.151 | 96.1 | inactive |
| P2RY14 (purinergic receptor P2Y14) | 3 | -1.36 | 54.9 | -1.25 | 85.1 | inactive |
| AHCYL2 (adenosylhomocysteinase like 2) | 1 | 0.368 | 89.2 | -0.0604 | 101 | inactive |
| AHCYL2 (adenosylhomocysteinase like 2) | 2 | 1.28 | 107 | 0.775 | 97.8 | inactive |
| AHCYL2 (adenosylhomocysteinase like 2) | 3 | -2.41 | 34 | -3.06 | 85.2 | inactive |
| SPINK9 (serine peptidase inhibitor Kazal type 9) | 1 | 0.482 | 91.5 | -0.253 | 109 | inactive |
| SPINK9 (serine peptidase inhibitor Kazal type 9) | 2 | 0.388 | 89.6 | 0.587 | 85.8 | inactive |
| SPINK9 (serine peptidase inhibitor Kazal type 9) | 3 | -0.115 | 79.6 | -0.791 | 110 | inactive |
| TOR1AIP1 (torsin 1A interacting protein 1) | 1 | -0.403 | 73.9 | -0.119 | 85.2 | inactive |
| TOR1AIP1 (torsin 1A interacting protein 1) | 2 | -0.343 | 75.1 | -0.504 | 95.8 | inactive |
| TOR1AIP1 (torsin 1A interacting protein 1) | 3 | -0.647 | 69 | -0.692 | 92.6 | inactive |
| RASD1 (ras related dexamethasone induced 1) | 1 | -0.344 | 75 | -0.91 | 107 | inactive |
| RASD1 (ras related dexamethasone induced 1) | 2 | -0.7 | 68 | -1.39 | 109 | inactive |
| RASD1 (ras related dexamethasone induced 1) | 3 | 0.129 | 84.4 | 0.519 | 82.3 | inactive |
| TNNT1 (troponin T1, slow skeletal type) | 1 | 1.4 | 110 | 0.474 | 108 | inactive |
| TNNT1 (troponin T1, slow skeletal type) | 2 | -1.59 | 50.2 | -1.28 | 78.5 | inactive |
| TNNT1 (troponin T1, slow skeletal type) | 3 | 1.05 | 103 | 0.696 | 95.7 | inactive |
| OR2T12 (olfactory receptor family 2 subfamily T member 12) | 1 | -0.398 | 74 | 0.183 | 78.8 | inactive |
| OR2T12 (olfactory receptor family 2 subfamily T member 12) | 2 | 0.415 | 90.1 | 2.01 | 59.3 | inactive |
| OR2T12 (olfactory receptor family 2 subfamily T member 12) | 3 | -1.99 | 42.3 | -2.21 | 84.6 | inactive |
| PCBD2 (pterin-4 alpha-carbinolamine dehydratase 2) | 1 | 0.472 | 91.3 | 0.285 | 94.6 | inactive |
| PCBD2 (pterin-4 alpha-carbinolamine dehydratase 2) | 2 | 0.371 | 89.3 | 1.13 | 74.2 | inactive |
| PCBD2 (pterin-4 alpha-carbinolamine dehydratase 2) | 3 | -0.756 | 66.8 | 0.664 | 62.7 | inactive |
| ITIH4 (inter-alpha-trypsin inhibitor heavy chain 4) | 1 | -0.946 | 63.1 | -1.53 | 105 | inactive |
| ITIH4 (inter-alpha-trypsin inhibitor heavy chain 4) | 2 | 1.69 | 116 | 1.06 | 97.7 | inactive |
| ITIH4 (inter-alpha-trypsin inhibitor heavy chain 4) | 3 | 0.114 | 84.2 | -0.159 | 98 | inactive |
| HAPLN4 (hyaluronan and proteoglycan link protein 4) | 1 | 2.35 | 129 | 2.67 | 71.2 | inactive |
| HAPLN4 (hyaluronan and proteoglycan link protein 4) | 2 | -0.347 | 75 | 0.242 | 78.6 | inactive |
| HAPLN4 (hyaluronan and proteoglycan link protein 4) | 3 | 1.23 | 106 | 0.764 | 97.2 | inactive |
| OVOS1P (ovostatin 1, pseudogene) | 1 | -0.239 | 77.1 | -0.694 | 103 | inactive |
| OVOS1P (ovostatin 1, pseudogene) | 2 | 0.467 | 91.2 | 0.176 | 97.2 | inactive |
| OVOS1P (ovostatin 1, pseudogene) | 3 | -0.364 | 74.6 | -0.52 | 95.7 | inactive |
| TCN2 (transcobalamin 2) | 1 | 0.974 | 101 | 0.493 | 99.4 | inactive |
| TCN2 (transcobalamin 2) | 2 | -0.928 | 63.4 | 2.01 | 41.8 | inactive |
| TCN2 (transcobalamin 2) | 3 | -1.28 | 56.5 | -2.21 | 113 | inactive |
| CDIP1 (cell death inducing p53 target 1) | 1 | -1.22 | 57.6 | -0.745 | 78.3 | inactive |
| CDIP1 (cell death inducing p53 target 1) | 2 | 0.311 | 88.1 | 1.07 | 74.2 | inactive |
| CDIP1 (cell death inducing p53 target 1) | 3 | -0.518 | 71.6 | -0.301 | 86.6 | inactive |
| HYCC2 (hyccin PI4KA lipid kinase complex subunit 2) | 1 | 0.498 | 91.8 | -0.0744 | 105 | inactive |
| HYCC2 (hyccin PI4KA lipid kinase complex subunit 2) | 2 | -0.531 | 71.3 | -0.135 | 82.6 | inactive |
| HYCC2 (hyccin PI4KA lipid kinase complex subunit 2) | 3 | 0.0409 | 82.7 | -0.305 | 100 | inactive |
| DES (desmin) | 1 | 2.97 | 141 | 1.76 | 99 | inactive |
| DES (desmin) | 2 | -0.235 | 77.2 | -0.416 | 96.3 | inactive |
| DES (desmin) | 3 | -1.15 | 59 | -1.83 | 107 | inactive |
